Laboratory results taken from PubChem BioAssay AID662 (National Center for Advancing Translational Sciences (NCATS), 2007).
Some of the results follow. Further columns of the screen follow, without active or inactive calls. Most of these compounds were active or inconclusive in the main read-out, so they are no random draw. The note in brackets gives the kind of curve behind each potency; many fits are weak.

Test: Cell signaling CRE-BLA (Fsk stim)
Settings: CHO CRE-bla reporter (cAMP response element driving beta-lactamase), forskolin EC10, beta-lactamase ratio; measured here: 460 nm blue channel
Outline: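 CRE-bla CHO reporter cells treated with compound titration plus EC10 NKH 477 (water-soluble forskolin), incubated 3 h at 37 °C; CCF4 loading 2 h at room temperature, 460/530 nm emission ratio read, AC50 values derived for positive or negative modulators.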

Structure (SMILES) | AC50
COc1ccc(CN2CCN(c3ccccn3)CC2)c(OC)c1 | 0.00316 µM [falling, full curve, poor fit]
CCOc1ccccc1C(=O)NC1CC2CCCC(C1)N2Cc1nnnn1Cc1ccco1 (centres undefined) | 10 µM [rising, single point]
O=C(CCCn1c(=S)[nH]c2ccc(Br)cc2c1=O)N1CCN(c2ccccn2)CC1 | 2.51 µM [rising, single point]
Cc1nc2c(C(=O)N3CCCC3)c[nH]n2c(=O)c1Cc1ccc(F)cc1Cl | 0.126 µM [falling, partial curve, poor fit]
CCCCOc1cccc(NC(=O)CSc2nccn2C)c1 | 5.01 µM [rising, single point]
CCOC(=O)c1ccccc1NC(=O)COC | 25.1 µM [rising, single point]
Cc1nnc2sc(-c3ccc(-c4ccc(Cl)c(C(F)(F)F)c4)o3)nn12 | 10 µM [rising, single point]
CCOC(=O)c1c(NC(=O)CNCCO)sc(C)c1C | 12.6 µM [rising, single point]
COc1ccc(Oc2ncc3nc(-c4cccs4)c(=O)n(-c4ccccc4)c3n2)cc1 | 2.51 µM [rising, full curve]
Clc1cccc(-c2nn3c(Cn4cnc5ccccc54)nnc3s2)c1 | 20 µM [rising, single point]
N#Cc1cccc(-c2nccc(NCc3cccs3)n2)c1 | 5.01 µM [rising, partial curve]
CCCCOc1cccc(OCCCC)c1C(=O)Nc1cc(C)on1 | 12.6 µM [falling, single point]
Cc1ccccc1-c1nc(N2CCN(C)CC2)c2ccccc2n1 | 10 µM [rising, partial curve]
COc1ccccc1NC(=O)Cn1nnc(-c2ccccc2NC(=O)c2ccco2)n1 | 15.8 µM [rising, partial curve]
O=C(OCCN1CCCCC1)c1ccc(O)cc1 | 1 µM [rising, single point]
CCNc1ncc2nc(C)c(=O)n(CCOC)c2n1 | 12.6 µM [rising, partial curve]
COC(=O)CSc1ccc2nnc(-c3ccc(OC)c(OC)c3)n2n1 | 7.94 µM [rising, partial curve]
CC(=O)c1c(C)n(-c2ccc(N(C)C)cc2)c2ccc(OCC(N)=O)cc12 | 12.6 µM [rising, partial curve]
Oc1cc(CN2COc3ccccc32)c(O)cc1CNC1CCCCC1 | 5.01 µM [rising, single point]
Cc1ccc(Cn2ccc(NC(=O)c3cc(C(C)C)on3)n2)cc1 | 12.6 µM [falling, partial curve]
Cn1c(=O)c2c(nc(Br)n2CCCc2ccccc2)n(C)c1=O | 12.6 µM [rising, partial curve]
CCC1(CC)C(=O)N(C)C(=O)NC1=NCc1ccccc1 | 3.98 µM [falling, partial curve, poor fit]

Reformatted: entries from further up

| Structure (SMILES) | AC50 |
| --- | --- |
| CCOC(=O)c1ccccc1NC(=O)COC | 25.1 µM [rising, single point] |
| Cc1nnc2sc(-c3ccc(-c4ccc(Cl)c(C(F)(F)F)c4)o3)nn12 | 10 µM [rising, single point] |
| CCOC(=O)c1c(NC(=O)CNCCO)sc(C)c1C | 12.6 µM [rising, single point] |
| COc1ccc(Oc2ncc3nc(-c4cccs4)c(=O)n(-c4ccccc4)c3n2)cc1 | 2.51 µM [rising, full curve] |

The list continues:

Structure (SMILES) | AC50
Cc1ccc(C(=O)Nc2ccc(S(=O)(=O)N3CCc4ccccc4C3)cc2)o1 | 7.94 µM [falling, partial curve]
OCCn1c(SCCOc2ccccc2F)nc2ccccc21 | 0.00398 µM [falling, partial curve, poor fit]
O=C(CN1CCN(c2nc(-c3ccc(F)cc3)cs2)CC1)Nc1ccc2c(c1)OCO2 | 6.31 µM [falling, partial curve, poor fit]
CCCCC(=O)Nc1nc2ccc3nc(C)sc3c2s1 | 12.6 µM [rising, partial curve]
O=C(O)C1=CCCNC1 | 31.6 µM [falling, single point]
CCC(=O)N1CCc2cc(S(=O)(=O)CCC(=O)NCc3ccc4c(c3)OCO4)ccc21 | 15.8 µM [rising, partial curve]
Cc1nc(SCc2c(F)cccc2Cl)c2c(=O)n(C)c(=O)n(C)c2n1 | 2 µM [rising, full curve]
CC1CCN(CCC(=O)N2CCCc3c2c(=O)oc2ccc(O)cc32)CC1 | 10 µM [falling, single point]
COc1ccc(C2=CC(c3ccc(F)cc3)n3nnnc3N2)cc1 (centres undefined) | 0.00316 µM [falling, full curve, poor fit]
CCOc1ccc(S(=O)(=O)Nc2cc(OC)ccc2OC)cc1 | 6.31 µM [rising, partial curve]
CN1C(=O)CC(N2CCN(CCN=CC3=C(O)CC(C)(C)CC3=O)CC2)C1=O (centres undefined) | 0.1 µM [falling, full curve]
COC(=O)c1oc2ccc(Br)cc2c1-n1cccc1 | 25.1 µM [rising, single point]
COc1cc2c(cc1OC)-c1cc(NC3CCCC3)nc(=O)n1CC2 | 7.94 µM [rising, partial curve]
CCOC(=O)Cn1nnnc1C(CC)N(Cc1cc2ccc(C)cc2[nH]c1=O)C1CCCC1 (centres undefined) | 0.398 µM [falling, partial curve]
Cc1cc(=O)n2nc(N3CCCC3C(=O)NCc3ccccn3)sc2n1 (centres undefined) | 0.0251 µM [falling, full curve, poor fit]
COc1cc(OC)cc(C(=O)Nc2ccc3c(c2)COC3=O)c1 | 15.8 µM [rising, single point]
COc1cc2c(cc1NC(=O)Cn1cnc3c1c(=O)n(C)c(=O)n3C)oc1ccccc12 | 15.8 µM [rising, single point]
CC1Cc2nc(SCC(=O)NCc3ccco3)n(Cc3ccccc3)c(=O)c2S1 (centres undefined) | 12.6 µM [rising, partial curve]
COc1cc2c(cc1NC(=O)c1cncc(Br)c1)oc1ccccc12 | 25.1 µM [rising, single point]
Cc1nc2ccccc2c(=O)n1/N=C/c1c(O)ccc2oc3c(c12)CCCC3 | 7.94 µM [rising, partial curve]
COCCN1C(=O)C(=O)/C(=C(/O)c2ccc(OC(C)C)cc2)C1c1cccnc1 (centres undefined) | 3.16 µM [falling, full curve, poor fit]
Cc1ccc([C@@H](O)c2cnc(C)n2Cc2ccccc2)cc1 | 3.98 µM [falling, single point]
